Values joined by “and” are separate entries in the source; they are usually repeats but may differ in a detail not shown here. Identical values can stand only once. Part of at least one peptide drawing is inferred or uncertain, most often the ends.
Assays:
insulin receptor = insulin receptor (Homo sapiens, UniProt P06213); assay: Insulin receptor competition binding assay (scintillation proximity); design: expressed in transfected cells; plasma membrane fragments; conditions: Table 9
IGF-1 receptor = IGF-1 receptor (Homo sapiens, UniProt P08069); assay: IGF-1 receptor competition binding assay (scintillation proximity); design: expressed in transfected cells; plasma membrane fragments; conditions: Table 9; for % IGF-1 (in test): IGF-1 Receptor; for Ratio: IGF-1 receptor versus insulin receptor

Protein sequences, listed by entry. Tags and fused reporters are not part of them. Residues count along the entry.
UniProt P06213, 28-758 limits assumed: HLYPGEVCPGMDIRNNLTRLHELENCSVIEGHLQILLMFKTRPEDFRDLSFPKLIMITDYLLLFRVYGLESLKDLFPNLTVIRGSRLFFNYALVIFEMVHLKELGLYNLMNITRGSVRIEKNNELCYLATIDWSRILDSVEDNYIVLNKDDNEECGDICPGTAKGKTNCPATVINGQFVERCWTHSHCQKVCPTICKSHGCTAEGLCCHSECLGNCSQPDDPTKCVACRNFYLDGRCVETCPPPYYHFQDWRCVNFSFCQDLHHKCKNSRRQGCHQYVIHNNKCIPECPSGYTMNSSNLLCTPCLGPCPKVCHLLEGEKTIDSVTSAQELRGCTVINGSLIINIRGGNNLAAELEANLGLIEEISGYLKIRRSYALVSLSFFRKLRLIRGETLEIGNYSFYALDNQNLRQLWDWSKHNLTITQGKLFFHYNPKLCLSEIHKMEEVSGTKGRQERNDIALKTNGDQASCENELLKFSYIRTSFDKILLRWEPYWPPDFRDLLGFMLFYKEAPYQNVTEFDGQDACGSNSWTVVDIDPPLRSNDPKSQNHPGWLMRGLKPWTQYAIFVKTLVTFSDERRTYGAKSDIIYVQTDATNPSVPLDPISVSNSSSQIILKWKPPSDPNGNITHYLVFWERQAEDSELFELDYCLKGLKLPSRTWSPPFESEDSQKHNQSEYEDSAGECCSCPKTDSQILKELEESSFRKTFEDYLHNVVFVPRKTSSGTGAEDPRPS
UniProt P06213, 763-1382 partner limits assumed: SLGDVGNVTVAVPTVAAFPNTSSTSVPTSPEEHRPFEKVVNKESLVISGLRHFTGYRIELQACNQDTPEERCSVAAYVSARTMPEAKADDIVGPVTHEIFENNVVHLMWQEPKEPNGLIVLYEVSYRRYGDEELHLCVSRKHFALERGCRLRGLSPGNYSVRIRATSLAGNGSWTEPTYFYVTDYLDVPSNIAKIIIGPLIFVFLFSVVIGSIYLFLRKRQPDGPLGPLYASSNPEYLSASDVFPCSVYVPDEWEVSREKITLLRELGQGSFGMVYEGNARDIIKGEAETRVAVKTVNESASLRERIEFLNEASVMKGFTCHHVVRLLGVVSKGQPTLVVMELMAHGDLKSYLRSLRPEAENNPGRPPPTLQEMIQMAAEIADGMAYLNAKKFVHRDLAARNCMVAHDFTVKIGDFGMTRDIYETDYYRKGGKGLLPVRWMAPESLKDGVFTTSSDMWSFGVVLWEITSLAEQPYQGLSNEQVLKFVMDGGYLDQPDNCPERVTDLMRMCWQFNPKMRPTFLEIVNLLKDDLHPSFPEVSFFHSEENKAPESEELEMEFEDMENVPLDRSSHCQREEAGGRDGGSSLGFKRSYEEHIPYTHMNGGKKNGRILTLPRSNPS
UniProt P08069, 741-1367 partner limits assumed: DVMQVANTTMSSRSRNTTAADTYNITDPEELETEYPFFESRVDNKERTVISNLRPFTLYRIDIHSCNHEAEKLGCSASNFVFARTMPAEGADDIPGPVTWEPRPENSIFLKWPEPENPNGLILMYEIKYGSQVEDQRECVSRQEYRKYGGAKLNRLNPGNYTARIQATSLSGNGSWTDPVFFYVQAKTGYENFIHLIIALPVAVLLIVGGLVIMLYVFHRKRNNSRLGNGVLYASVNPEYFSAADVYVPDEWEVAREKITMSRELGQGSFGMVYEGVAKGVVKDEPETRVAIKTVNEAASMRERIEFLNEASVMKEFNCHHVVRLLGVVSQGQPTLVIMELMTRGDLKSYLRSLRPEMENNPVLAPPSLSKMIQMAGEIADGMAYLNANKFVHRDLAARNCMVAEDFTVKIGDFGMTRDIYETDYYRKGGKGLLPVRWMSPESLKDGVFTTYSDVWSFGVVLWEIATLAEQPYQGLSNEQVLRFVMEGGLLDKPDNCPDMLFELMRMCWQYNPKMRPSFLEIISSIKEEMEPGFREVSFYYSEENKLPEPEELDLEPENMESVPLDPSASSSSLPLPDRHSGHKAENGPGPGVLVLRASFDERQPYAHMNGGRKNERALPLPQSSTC
UniProt P08069, 31-736 limits assumed: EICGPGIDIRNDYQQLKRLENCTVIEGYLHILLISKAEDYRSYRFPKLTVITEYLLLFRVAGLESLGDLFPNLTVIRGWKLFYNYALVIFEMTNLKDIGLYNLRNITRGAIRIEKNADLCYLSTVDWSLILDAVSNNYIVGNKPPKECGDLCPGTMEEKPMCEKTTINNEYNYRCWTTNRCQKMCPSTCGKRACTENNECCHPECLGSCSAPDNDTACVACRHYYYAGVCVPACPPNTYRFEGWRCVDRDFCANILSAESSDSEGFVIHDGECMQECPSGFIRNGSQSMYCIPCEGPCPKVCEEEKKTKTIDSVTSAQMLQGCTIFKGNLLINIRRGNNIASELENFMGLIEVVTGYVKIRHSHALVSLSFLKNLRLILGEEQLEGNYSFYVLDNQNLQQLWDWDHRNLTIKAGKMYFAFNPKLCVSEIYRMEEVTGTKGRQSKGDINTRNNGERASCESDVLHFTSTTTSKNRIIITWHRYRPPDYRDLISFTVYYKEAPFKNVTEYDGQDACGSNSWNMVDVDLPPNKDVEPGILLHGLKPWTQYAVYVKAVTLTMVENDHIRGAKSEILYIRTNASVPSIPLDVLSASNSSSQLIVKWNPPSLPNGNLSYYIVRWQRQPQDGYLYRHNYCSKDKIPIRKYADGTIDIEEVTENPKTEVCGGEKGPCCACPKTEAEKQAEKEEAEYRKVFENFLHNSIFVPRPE

| Structure (SMILES) | % insulin (in test) (insulin receptor) | % native insulin activity (0.6 nM) (insulin receptor) | % IGF-1 (in test) (IGF-1 receptor) [%] | Ratio (IGF-1 receptor) |
| --- | --- | --- | --- | --- |
| CC[C@H](C)[C@H](NC(=O)CN)C(=O)N[C@H](C(=O)N[C@@H](CC(=O)O)C(=O)N[C@@H](CCC(=O)O)C(=O)N[C@H]1CSSC[C@@H]2NC(=O)[C@H](CO)NC(=O)[C@H](CCCNC(=N)N)NC(=O)[C@H](Cc3ccccc3)NC(=O)[C@H](CSSC[C@H](NC(=O)[C@H](CC(C)C)NC(=O)[C@@H](NC(=O)[C@H](CCC(=O)O)NC(=O)[C@@H]3CCCN3C(=O)CN)[C@@H](C)O)C(=O)NCC(=O)N[C@@H](C)C(=O)N[C@@H](CCC(=O)O)C(=O)N[C@@H](CC(C)C)C(=O)N[C@@H](C(C)C)C(=O)N[C@@H](CC(=O)O)C(=O)N[C@@H](C)C(=O)N[C@@H](CC(C)C)C(=O)N[C@@H](CCC(N)=O)C(=O)N[C@@H](Cc3ccccc3)C(=O)N[C@@H](C(C)C)C(=O)N[C@H](C(=O)NCC(=O)N[C@@H](CC(=O)O)C(=O)N[C@@H](CCCNC(=N)N)C(=O)NCC(=O)N[C@@H](Cc3ccccc3)C(=O)N[C@@H](Cc3ccc(O)cc3)C(=O)N[C@@H](Cc3ccccc3)C(=O)N[C@@H](CC(N)=O)C(=O)N[C@@H](CCCCN)C(=O)N3CCC[C@H]3C(=O)N[C@H](C(N)=O)[C@@H](C)O)CSSC[C@@H](C(=O)N[C@@H](C)C(N)=O)NC(=O)[C@H](Cc3ccc(O)cc3)NC(=O)[C@H](CCSC)NC(=O)[C@H](CCC(=O)O)NC(=O)[C@H](CC(C)C)NC(=O)[C@H](CCCNC(=N)N)NC(=O)[C@H](CCCNC(=N)N)NC(=O)[C@H](CC(C)C)NC(=O)[C@H](CC(=O)O)NC2=O)NC1=O)C(C)C [IGF-1 A:B] | 5.8% | 5.8% | – | – |
| CC[C@H](C)[C@H](NC(=O)CN)C(=O)N[C@H](C(=O)N[C@@H](CC(=O)O)C(=O)N[C@@H](CCC(=O)O)C(=O)N[C@H]1CSSC[C@@H]2NC(=O)[C@H](CO)NC(=O)[C@H](CCCNC(=N)N)NC(=O)[C@H](Cc3ccccc3)NC(=O)[C@H](CSSC[C@H](NC(=O)[C@H](CC(C)C)NC(=O)[C@@H](NC(=O)[C@H](CCC(=O)O)NC(=O)[C@@H]3CCCN3C(=O)CN)[C@@H](C)O)C(=O)NCC(=O)N[C@@H](CO)C(=O)N[C@@H](Cc3c[nH]cn3)C(=O)N[C@@H](CC(C)C)C(=O)N[C@@H](C(C)C)C(=O)N[C@@H](CCC(=O)O)C(=O)N[C@@H](C)C(=O)N[C@@H](CC(C)C)C(=O)N[C@@H](Cc3ccc(O)cc3)C(=O)N[C@@H](CC(C)C)C(=O)N[C@@H](C(C)C)C(=O)N[C@H](C(=O)NCC(=O)N[C@@H](CC(=O)O)C(=O)N[C@@H](CCCNC(=N)N)C(=O)NCC(=O)N[C@@H](Cc3ccccc3)C(=O)N[C@@H](Cc3ccc(O)cc3)C(=O)N[C@@H](Cc3ccccc3)C(=O)N[C@@H](CC(N)=O)C(=O)N[C@@H](CCCCN)C(=O)N3CCC[C@H]3C(=O)N[C@H](C(N)=O)[C@@H](C)O)CSSC[C@@H](C(=O)N[C@@H](C)C(N)=O)NC(=O)[C@H](Cc3ccc(O)cc3)NC(=O)[C@H](CCSC)NC(=O)[C@H](CCC(=O)O)NC(=O)[C@H](CC(C)C)NC(=O)[C@H](CCCNC(=N)N)NC(=O)[C@H](CCCNC(=N)N)NC(=O)[C@H](CC(C)C)NC(=O)[C@H](CC(=O)O)NC2=O)NC1=O)C(C)C | 19.1% | 37.7% | 0.3 | 82.6 |
| CC[C@H](C)[C@H](NC(=O)CN)C(=O)N[C@H](C(=O)N[C@@H](CC(=O)O)C(=O)N[C@@H](CCC(=O)O)C(=O)N[C@H]1CSSC[C@@H]2NC(=O)[C@H](CO)NC(=O)[C@H](CCCNC(=N)N)NC(=O)[C@H](Cc3ccccc3)NC(=O)[C@H](CSSC[C@H](NC(=O)[C@H](CC(C)C)NC(=O)[C@H](Cc3c[nH]cn3)NC(=O)[C@H](CCC(N)=O)NC(=O)[C@H](CC(N)=O)NC(=O)[C@@H](NC(=O)[C@@H](N)Cc3ccccc3)C(C)C)C(=O)NCC(=O)N[C@@H](CO)C(=O)N[C@@H](Cc3c[nH]cn3)C(=O)N[C@@H](CC(C)C)C(=O)N[C@@H](C(C)C)C(=O)N[C@@H](CCC(=O)O)C(=O)N[C@@H](C)C(=O)N[C@@H](CC(C)C)C(=O)N[C@@H](Cc3ccc(O)cc3)C(=O)N[C@@H](CC(C)C)C(=O)N[C@@H](C(C)C)C(=O)N[C@H](C(=O)NCC(=O)N[C@@H](CC(=O)O)C(=O)N[C@@H](CCCNC(=N)N)C(=O)NCC(=O)N[C@@H](Cc3ccccc3)C(=O)N[C@@H](Cc3ccc(O)cc3)C(=O)N[C@@H](Cc3ccccc3)C(=O)N[C@@H](CC(N)=O)C(=O)N[C@@H](CCCCN)C(=O)N3CCC[C@H]3C(=O)N[C@H](C(N)=O)[C@@H](C)O)CSSC[C@@H](C(=O)N[C@@H](C)C(N)=O)NC(=O)[C@H](Cc3ccc(O)cc3)NC(=O)[C@H](CCSC)NC(=O)[C@H](CCC(=O)O)NC(=O)[C@H](CC(C)C)NC(=O)[C@H](CCCNC(=N)N)NC(=O)[C@H](CCCNC(=N)N)NC(=O)[C@H](CC(C)C)NC(=O)[C@H](CC(=O)O)NC2=O)NC1=O)C(C)C [IGF-1 A:In (1-17)-IGF-1 B(18-30)] | 14.0% and 11.3% and 20.1% | 21.7% and 22.5% and 24.2% | 0.9 | 22.6 |

Source: patent US9593156B2 (priority 2012, dated 2017)
